Results on 24 sequences are retold here after the supplement of paper PMC10338343.

± gives the standard deviation. This is a selection; strong and weak results do not stand in their true shares. The uncertainty is large for many entries. Bounds are passed on as bounds.

The assay deals with EfPiwi piRISC loaded with piRNA #1 (26 nt). The assay is described as follows: pre-steady-state target cleavage rate (min^-1); guide: piRNA #1 5'p-UGAGGUAGUAGGUUGUAUAGUAUCCA; MIWI and MILI are mouse PIWI proteins and EfPiwi is from a freshwater sponge; tags in brackets are library labels; higher = faster piRNA-guided slicing of the target. The following applies: auxiliary factor: 500 nM Ephydatia muelleri Gtsf1. An outline of the steps: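 Cleave-'n-Seq measured uncleaved targets by sequencing after a transcribed, DNA-blocked target RNA library […] was mixed with 1 nM active affinity-purified piRISC holding one synthetic guide, with or without 500 nM GTSF1 partner protein, at 33 °C in HEPES–potassium acetate buffer for 0–8 or 0–960 min. Counts were normalised to depth and to weakly complementary targets, three trials were pooled, and k3 was capped at 0.0001 min^-1. A burst-and-steady-state fit gave the pre-steady-state cleavage rate.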
GGAGUGCAUACUAUACAAGCUACUACCUCA: the “pre-steady-state target cleavage rate” value is 0.00482 ± 0.002. Next, GGAGACGAUACUAUACAAGGAACUACCUCA: 0.00118 ± 0.0063.

Consider GGAGACCUAACAAUACAACCUACUACGUCA, for which the “pre-steady-state target cleavage rate” value is 0.00201 ± 0.0066. Next, GGAGACCUAUGAUUACAAGCUACUACGUCA: 0.00279 ± 0.0042; GGAGACCUAUGAUAUGUACCUAUUACCUCA: < 0.0001. To GGAGACCUUACUAUACAACGUUCUACCUCA belongs 0.000503 ± 0.005; to GGAGACGAUACUAUACUACGUACUACCUCA, 0.00413 ± 0.0027. Take GGAGACCUUACUAUACAACCUACUACCAUCA: the “pre-steady-state target cleavage rate” value amounted to 0.00369 ± 0.0024. Regarding GGAGACCUUACUAUAUCAACCUACUACCUCA, the “pre-steady-state target cleavage rate” value was 0.00321 ± 0.0042. To GGAGACGAUACAAUACAACGUACUACCUCA belongs 0.00285 ± 0.0031. Consider GGAGACCUAUGUAUAGAACCUUCUACCUCA, for which the “pre-steady-state target cleavage rate” value is < 0.0001.

As for GGAGUGGACACUAUACAACCUACUACCUCA, the “pre-steady-state target cleavage rate” value is 0.115 ± 0.041. To GGAGACCUAUGAUAUGUUGGUACUAACCUCA belongs 0.000115 ± 0.028; to GGAGUGGAAACUAUAGAACCUACUACCUCA, 0.000481 ± 0.0046.

As for GGAGACCAUACUAUACAAGCUACUUCCUCA, the “pre-steady-state target cleavage rate” value worked out at 0.00551 ± 0.0027. In the case of GGAGUGGAUAGUAUACAACCUUCUACCUCA, the “pre-steady-state target cleavage rate” value was 0.00338 ± 0.0021. To GGAGACCAUACUAUACAACCUACUUCCUCA belongs 0.00455 ± 0.002; to GGAGAGGAUAUUAUACAACCUACUACCUCA, 0.0615 ± 0.023; to GGAGACCUUACUAUACAUCCUACUACCUCA, 0.00607 ± 0.0029. Next, GGAGACCUAUGAUUAGAUCCUACUACCUCA: 0.000411 ± 0.005; GGAGACCUAUGAUAACAAUCUACUACCUCA: 0.000278 ± 0.0082; GGAGACCUAUGAUAUGUUGCUAGUAGCUCA: 0.000257 ± 0.015. Next, GGAGUGGAAACUAUACAAGCUACUACCUCA: 0.00579 ± 0.0027; GGAGAGGAUUCUAUACAUCCUACUACCUCA: 0.00257 ± 0.003.
